# Test results published in PubChem BioAssay AID540256 (National Center for Advancing Translational Sciences (NCATS), 2011).
# Where “and” joins values, the source holds several entries; their conditions need not be identical. Equal values may be shown once. The whole screen tested about 300,000 compounds, of which about 3,700 (1.2%) were called active. The shares of active, inactive and inconclusive entries below differ from those in the screen. Calls follow the shape of the full dose curve; tested in HEK293 cells. Potencies of inconclusive entries are doubtful fits and often do not repeat.
# Assay: qHTS for Inhibitors of binding or entry into cells for Lassa Virus; also: nearly all actives have a fitted effect of over 50% in size
# Conditions: Lassa virus pseudotype entry inhibition, cell reporter; activity change, negative = inhibition: at 37.9 µM (top of the series) unless noted
# % is scaled to controls: 0 for no effect and ±100 for the full control effect; potency is read from the fitted curve at half-maximal effect.
Compound,Potency,"activity change, negative = inhibition"
CC(=O)Oc1ccc(C(=O)NCCc2ccccc2)cc1,active: 7.08 µM,
COc1ccc(C2=NN(c3nc(-c4ccccc4)c(CC(=O)O)s3)C(c3ccco3)C2)cc1 (stereo unspecified),"inconclusive: 259 nM [inhibitor, partial curve] and inconclusive: 20 µM [inhibitor, single point]",
CC(C)C12CCC(C(=O)O)C(C1)C(=O)O2 (stereo unspecified),"inconclusive: 7.08 µM [inhibitor, partial curve, poor fit]",
CCNC(=S)N/N=C/c1ccc(OCC(=O)Nc2ccc(OC)cc2)c(OC)c1,"inconclusive: 0.794 µM [inhibitor, full curve, poor fit]",
COC(=O)C1=C(C(=O)OC)SC2(S1)C(C(=O)OC)=C(C(=O)OC)SC1=C2c2cc(C)ccc2NC1(C)C,"inconclusive: 4.47 µM [activator, partial curve, poor fit]",
Cc1ccc(S(=O)(=O)Cc2ccc(C(=O)NCc3cccs3)o2)cc1,"inconclusive: 14.6 µM [inhibitor, partial curve, poor fit]",
COc1ccc(C(=O)N2CCC(C(=O)Nc3ccccc3OC)CC2)cc1,"inconclusive: 29.1 µM [activator, partial curve, poor fit]",
CCOC(=O)C1CCN(C(=O)Cn2nc(CC)n3c(cc4occc43)c2=O)CC1,"inconclusive: 22.4 µM [inhibitor, single point]",
Cc1cccc(-n2c(SCc3ccc([N+](=O)[O-])cc3)nnc2-c2c[nH]c3ccccc23)c1,"inconclusive: 11.6 µM [inhibitor, partial curve, poor fit]",
O=c1cc(CNc2cc(Cl)ccc2Cl)nc2sccn12,,inactive: -1.1%
CCN(CC)S(=O)(=O)c1cccc(C(=O)OCC(=O)C23CC4CC(CC(C4)C2)C3)c1,"inconclusive: 29.1 µM [inhibitor, single point]",
Cc1[nH]n(-c2ccccc2)c(=O)c1N=Nc1cccc(C(=O)O)c1,"inconclusive: 2.51 µM [inhibitor, full curve, poor fit]",
Cc1ccc(NC(=O)CN2CCN(C3CCCCC3)C(=O)C2=O)cc1C,,inactive: 22.6% [at 46.1 µM]
Cc1ccc(S(=O)(=O)N(C)c2ccc(C(=O)N3CCN(Cc4ccc5c(c4)OCO5)CC3)cc2)cc1,"inconclusive: 29.1 µM [inhibitor, single point]",
CCCN1C(C(=O)c2ccccc2)=C(OC(=O)C(C)(C)C)c2ccccc2S1(=O)=O,"inconclusive: 35.5 µM [inhibitor, single point]",
COc1ccc(CCN2CC(C(=O)NCCc3ccc(C(F)(F)F)cc3)CCC2=O)cc1 (stereo unspecified),"inconclusive: 22.4 µM [inhibitor, single point]",
Cc1ccc2c(c1)sc1nc(=O)n(-c3cccc(Cl)c3)c(=O)n12,"inconclusive: 1.83 µM [activator, partial curve, poor fit] and inconclusive: 35.5 µM [activator, single point]",
COc1ccc(-c2noc(C3CCCN(C(=O)Nc4ccccc4F)C3)n2)cc1 (stereo unspecified),"inconclusive: 14.1 µM [inhibitor, single point]",
Cc1c(/C=N/NC(=O)c2cc(=O)[nH]c(=O)[nH]2)c2ccccn2c1C(=O)c1ccccc1,,inactive: -5.43%
O=C(C=Cc1cccnc1)c1ccccc1,"inconclusive: 17.8 µM [inhibitor, single point]",
COc1ccc(-c2nnc3sc(C4CCCCC4)nn23)cc1OC,"inconclusive: 10.3 µM [inhibitor, partial curve]",

Compound,Potency,"activity change, negative = inhibition"
Cc1ccc(-c2cc(C(=O)Nc3c(C)n(C)n(-c4ccccc4)c3=O)c3ccccc3n2)cc1,"inconclusive: 14.1 µM [inhibitor, partial curve]",
COc1ccc(C(=O)OCC(=O)c2ccc(Br)s2)c(OC)c1,"inconclusive: 0.708 µM [activator, single point]",
N#C/C(=C\c1ccccc1Cl)C(=O)NC(=O)Oc1ccccc1,"inconclusive: 25.9 µM [activator, single point]",
CC1(C)CC(=O)C(C2(O)C(=O)Nc3ccccc32)CO1 (stereo unspecified),"inconclusive: 3.16 µM [inhibitor, partial curve, poor fit]",
Cc1cc(C)c2c(N)c(C(=O)Nc3ccccc3Cl)sc2n1,,inactive: -18.4%
C[C@@H]1C=CCC(=O)N[C@@H](c2ccccc2)[C@H](C)C=CCC(=O)N[C@@H]1c1ccccc1,"inconclusive: 0.0075 µM [activator, full curve, poor fit]",
COc1cccc(CN2CC(C(=O)NCCSc3nnnn3C)CCC2=O)c1 (stereo unspecified),,inactive: 1.1%
CCCCN(C)C(=O)c1ccc2c(c1)N(Cc1cccc(Cl)c1)C(=O)c1ccccc1S2=O (stereo unspecified),"inconclusive: 35.5 µM [inhibitor, single point]",
COC1=C(C(=O)c2ccccc2)C(=O)[C@@]2(CC=C(C)C)C[C@@H]([S+](=O)([O-])c3ccccc3)C(C)(C)[C@@]1(CC=C(C)C)C2=O,"inconclusive: 0.0237 µM [inhibitor, full curve, poor fit]",
CCOc1ccc(OCC)c(NC(=O)CN2CCN(c3ccc(C)cc3C)CC2)c1,"inconclusive: 9.2 µM [inhibitor, partial curve, poor fit]",
Cc1ccc(NC(=O)N2CCc3c(sc4c3CCCC4)C2c2ccccc2)cc1F (stereo unspecified),,inactive: 15.4% [at 46.1 µM]
CCc1cccc(C)c1NC(=O)C(CC)Sc1nc2ccncc2[nH]1 (stereo unspecified),,inactive: 6.33% [at 46.1 µM]
COc1ccc(N(CC(=O)NCc2ccccc2)C(=O)CCC(=O)Nc2cc(C)ccn2)c(OC)c1,"inconclusive: 2.24 µM [inhibitor, full curve]",
CCn1cc(Cl)c(C(=O)N2N=C3/C(=C/c4cccs4)CCCC3C2c2cccs2)n1 (stereo unspecified),"inconclusive: 29.1 µM [inhibitor, single point]",
CCOc1ccc(CCNC(=O)COC(=O)/C=C/c2ccc(OC(F)F)c(OC)c2)cc1OCC,,inactive: -16.7%
CCOC(=O)C1(Cc2ccccc2C)CCCN(C(=O)c2ccc(CSC)o2)C1 (stereo unspecified),"inconclusive: 12.6 µM [inhibitor, partial curve]",
CCn1c(CSc2nc3ccccc3s2)nnc1SCC(=O)c1ccc(O)c(O)c1,"inconclusive: 32.6 µM [inhibitor, single point]",
CCOc1cccc2sc(NC(=O)c3ccc(S(=O)(=O)N4CCc5ccccc54)cc3)nc12,"inconclusive: 1 µM [inhibitor, full curve, poor fit]",
CCOC(=O)C1=C(N)n2c(s/c(=C\c3ccco3)c2=O)=C(C(=O)OCC)C1c1ccco1 (stereo unspecified),"inconclusive: 9.2 µM [inhibitor, partial curve, poor fit]",
CCN(CC)CCn1c2c(c(SCC(=O)Nc3ccc(C(C)C)cc3)nc1=O)CCC2,"inconclusive: 20 µM [inhibitor, partial curve, poor fit]",
COc1ccc(/C=C2\N=C3CCCCCN3C2=O)cc1OC,"inconclusive: 0.517 µM [inhibitor, partial curve, poor fit]",

# Entries above that have a COOH group, in the order listed:
Compound,Potency,"activity change, negative = inhibition"
COc1ccc(C2=NN(c3nc(-c4ccccc4)c(CC(=O)O)s3)C(c3ccco3)C2)cc1 (stereo unspecified),"inconclusive: 259 nM [inhibitor, partial curve] and inconclusive: 20 µM [inhibitor, single point]",
CC(C)C12CCC(C(=O)O)C(C1)C(=O)O2 (stereo unspecified),"inconclusive: 7.08 µM [inhibitor, partial curve, poor fit]",
Cc1[nH]n(-c2ccccc2)c(=O)c1N=Nc1cccc(C(=O)O)c1,"inconclusive: 2.51 µM [inhibitor, full curve, poor fit]",

# Remaining list, next part:

Compound,Potency,"activity change, negative = inhibition"
Cc1ccc(CNC(=O)C(=O)NCC2OCCN2S(=O)(=O)c2ccc(Br)cc2)cc1 (stereo unspecified),active: 7.94 µM,
O=C(CN(Cc1ccccc1)C(=O)CCC(=O)Nc1nccs1)NCc1ccc(F)cc1,,inactive: -26.9%
CCN1CCN(CC(=O)Nc2cc(S(=O)(=O)N(CC)c3ccccc3)ccc2Cl)CC1,"inconclusive: 2 µM [inhibitor, partial curve, poor fit]",
O=C(CCc1ccccc1)NCC1(c2ccccc2)CCCC1,"inconclusive: 15.8 µM [inhibitor, partial curve, poor fit]",
Cc1onc(-c2ccccc2)c1C(=O)NCC(=O)Nc1cc(Cl)ccc1Cl,"inconclusive: 0.631 µM [inhibitor, partial curve, poor fit]",
CCCCC(=O)N/N=C/c1c(O)n(Cc2ccc(F)cc2)c(=O)[nH]c1=O,,inactive: -6.75%
CCc1ccc(NC(=O)N(CCCOC(C)C)C2CCN(C(C)=O)CC2)cc1,"inconclusive: 0.651 µM [inhibitor, single point]",
O=C(/C=C/c1ccc(OC(F)F)cc1)OCC(=O)N1CCN(C(=O)c2ccco2)CC1,"inconclusive: 25.9 µM [inhibitor, partial curve, poor fit]",
CC(=O)c1cccc(Nc2cc(C)nc3nc(-c4ccccc4C)nn23)c1,,inactive: -4.34% [at 46.1 µM]
COc1ccc(-c2noc(-c3cc(C(C)C)[nH]n3)n2)cc1,"inconclusive: 35.5 µM [activator, single point]",
Cc1ccc(C(=O)N/C(=C\c2ccccc2)C(=O)NCC2CCCO2)cc1 (stereo unspecified),"inconclusive: 0.501 µM [inhibitor, partial curve, poor fit]",
Cc1cc2oc(C(=O)N(Cc3ccc(N(C)C)cc3)CC3CCCO3)c(C)c2cc1C (stereo unspecified),"inconclusive: 7.08 µM [inhibitor, full curve, poor fit]",
Cc1cc(Nc2ccc(Br)c(C)c2)n2nc(C)nc2n1,"inconclusive: 0.58 µM [inhibitor, partial curve, poor fit]",
Cc1noc(C)c1CSCC(=O)Nc1nc2ccccc2s1,,inactive: 4.23% [at 46.1 µM]
COc1ccc(-c2cnnn2-c2ccc(NC(=O)c3ccc(S(=O)(=O)N4CCCCC4)cc3)cc2)cc1OC,"inconclusive: 6.31 µM [inhibitor, full curve]",
CCOc1cc(/C=N/O)ccc1OCc1ccc(F)cc1,,inactive: 4.66%
Cc1ccc2oc(C(=O)N3CCN(Cc4ncccc4C)CC3)c(C)c2c1,,inactive: 0.146%
COc1ccccc1N(CC(=O)Nc1cc(C)on1)S(=O)(=O)c1ccc(Cl)cc1,"inconclusive: 11.2 µM [inhibitor, single point]",
CN1C2C=C(N(CCc3c[nH]c4ccccc34)C(=O)c3ccc(Cl)cc3)CC1CC2 (stereo unspecified),"inconclusive: 29.1 µM [inhibitor, single point]",

# Single records, from the list above:
# Cc1noc(C)c1CSCC(=O)Nc1nc2ccccc2s1 in the list: activity change, negative = inhibition: inactive: 4.23% [at 46.1 µM]
# CCCCC(=O)N/N=C/c1c(O)n(Cc2ccc(F)cc2)c(=O)[nH]c1=O in the list: activity change, negative = inhibition: inactive: -6.75%
